Results deposited as PubChem BioAssay AID652272 (Drosophila RNAi Screening Center, 2013).

Purpose: 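Finding fly genes that regulate Hedgehog signal transduction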 (primary screen)
Cell system: Drosophila clone 8 (Cl8) cells
Reagent: long dsRNA against Drosophila genes
Detection: 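Firefly light from a Hedgehog-responsive ptc promoter reporter and Renilla reference light, both read on a plate reader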
Reading the numbers: firefly Hh reporter signal: higher = more ptc reporter light; Renilla reference signal: higher = more Renilla control light
Call rule: 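Called a hit if the two-replicate mean z-score lies below -2 or above +3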
Meaning of the calls: active = hit: reporter lowered or raised; inactive = not a hit
The screen tested about 21,000 reagents; below is a random part of those that have a named target and a result. In the full data, 503 (2.4%) were called active. 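Raw plate light values, not normalised; calls rest on replicate z-scores that were not deposited; hits include reporter decreases as well as increases.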 Entries without a mark were called inactive. Names joined by + are all predicted targets of the reagent. Not given: the amount of reagent, the time to read-out.

{"Target gene": "CG11379", "DRSC id": "DRSC18629", "firefly Hh reporter signal, replicate 1": 77445, "firefly Hh reporter signal, replicate 2": 1.58e5, "Renilla reference signal, replicate 1": 2340, "Renilla reference signal, replicate 2": 5993}
{"Target gene": "eRF3", "DRSC id": "DRSC03322", "firefly Hh reporter signal, replicate 1": 90233, "firefly Hh reporter signal, replicate 2": 45392, "Renilla reference signal, replicate 1": 2989, "Renilla reference signal, replicate 2": 5114}
{"Target gene": "Scm", "DRSC id": "DRSC16853", "firefly Hh reporter signal, replicate 1": 67728, "firefly Hh reporter signal, replicate 2": 1.04e5, "Renilla reference signal, replicate 1": 1959, "Renilla reference signal, replicate 2": 2674}
{"Target gene": "CG5762", "DRSC id": "DRSC15869", "firefly Hh reporter signal, replicate 1": 95520, "firefly Hh reporter signal, replicate 2": 1.10e5, "Renilla reference signal, replicate 1": 3479, "Renilla reference signal, replicate 2": 4064}
{"Target gene": "CG40005 (retired record) + cta", "DRSC id": "DRSC03763", "firefly Hh reporter signal, replicate 1": 1.83e5, "firefly Hh reporter signal, replicate 2": 3.32e5, "Renilla reference signal, replicate 1": 5035, "Renilla reference signal, replicate 2": 14115}
{"Target gene": "Or43a", "DRSC id": "DRSC07485", "firefly Hh reporter signal, replicate 1": 89709, "firefly Hh reporter signal, replicate 2": 45370, "Renilla reference signal, replicate 1": 2402, "Renilla reference signal, replicate 2": 3847}
{"Target gene": "Ak6", "DRSC id": "DRSC07274", "firefly Hh reporter signal, replicate 1": 78173, "firefly Hh reporter signal, replicate 2": 53808, "Renilla reference signal, replicate 1": 1632, "Renilla reference signal, replicate 2": 4368}
{"Target gene": "CG4815", "DRSC id": "DRSC15653", "firefly Hh reporter signal, replicate 1": 1.10e5, "firefly Hh reporter signal, replicate 2": 86914, "Renilla reference signal, replicate 1": 4169, "Renilla reference signal, replicate 2": 2154}
{"Target gene": "CG43292", "DRSC id": "DRSC08883", "firefly Hh reporter signal, replicate 1": 7.81e5, "firefly Hh reporter signal, replicate 2": 1.66e5, "firefly Hh reporter signal, replicate 3": 1.19e5, "Renilla reference signal, replicate 1": 4994, "Renilla reference signal, replicate 2": 3914}
{"Target gene": "Dtd", "DRSC id": "DRSC15362", "firefly Hh reporter signal, replicate 1": 69664, "firefly Hh reporter signal, replicate 2": 1.56e5, "Renilla reference signal, replicate 1": 2006, "Renilla reference signal, replicate 2": 4121}
{"Target gene": "gb", "DRSC id": "DRSC15961", "firefly Hh reporter signal, replicate 1": 1.30e5, "firefly Hh reporter signal, replicate 2": 85513, "Renilla reference signal, replicate 1": 2577, "Renilla reference signal, replicate 2": 2469}
{"Target gene": "Gem3", "DRSC id": "DRSC11144", "firefly Hh reporter signal, replicate 1": 93784, "firefly Hh reporter signal, replicate 2": 48549, "firefly Hh reporter signal, replicate 3": 63560, "Renilla reference signal, replicate 1": 4217, "Renilla reference signal, replicate 2": 4928}
